Literature values in US20150268254A1, “SEBOCYTE CELL CULTURING AND METHODS OF USE” (Children's Hospital Medical Center, priority 2012, published 2015).
At least one compound was matched to its structure with a doubt left.

Test system: sebocytes
Conditions: known effect of reference compound; cited from earlier work

SMILES: C[C@]12CC[C@@H]3c4ccc(O)cc4CC[C@H]3[C@@H]1CC[C@@H]2O [Estradiol]
- effect on lipogenesis: decrease lipogenesis

SMILES: C[C@@H]1C[C@H]2[C@@H]3CCC4=CC(=O)C=C[C@]4(C)[C@@]3(F)[C@@H](O)C[C@]2(C)[C@@]1(O)C(=O)CO [Dexamethasone]
- effect on lipogenesis: decrease lipogenesis
